These are yes or no findings as the source states them, for the method shown. Binding seen in cells or lysates may run through a third protein. Some binding calls cover weakened binding; strength is not graded here.
Columns and labels:
[1] = biological target: mitochondrion-tethered E3 ubiquitin ligase MUL1 (human (endogenous in 786-O, A498 and patient-derived ccRCC tumor cells)) (UniProt Q969V5); test: co-IP; MUL1 immunoprecipitated from RIPA lysates (500 μg protein, precleared, primary antibody overnight at 4°C, protein A-agarose, 5 washes with RIPA) of 786-O cells treated with DMSO or 5 μM ACSS2i for 24 hours; Western blot
[2] = biological target: mitochondrion-tethered E3 ubiquitin ligase MUL1 (human (endogenous in 786-O, A498 and patient-derived ccRCC tumor cells)) (UniProt Q969V5); test: co-IP; immunoprecipitation from RIPA lysates of A498 cells treated with DMSO or ACSS2i; protein A-agarose; Western blot
[3] = biological target: mitochondrion-tethered E3 ubiquitin ligase MUL1 (human (endogenous in 786-O, A498 and patient-derived ccRCC tumor cells)) (UniProt Q969V5); test: co-IP; immunoprecipitation from RIPA lysates of tumor cells freshly isolated from a patient tumor, treated with DMSO, ACSS2i or PT-2385; protein A-agarose; Western blot

Sequences of proteins named here, by UniProt entry; tags and fusion partners are left off.
UniProt Q969V5: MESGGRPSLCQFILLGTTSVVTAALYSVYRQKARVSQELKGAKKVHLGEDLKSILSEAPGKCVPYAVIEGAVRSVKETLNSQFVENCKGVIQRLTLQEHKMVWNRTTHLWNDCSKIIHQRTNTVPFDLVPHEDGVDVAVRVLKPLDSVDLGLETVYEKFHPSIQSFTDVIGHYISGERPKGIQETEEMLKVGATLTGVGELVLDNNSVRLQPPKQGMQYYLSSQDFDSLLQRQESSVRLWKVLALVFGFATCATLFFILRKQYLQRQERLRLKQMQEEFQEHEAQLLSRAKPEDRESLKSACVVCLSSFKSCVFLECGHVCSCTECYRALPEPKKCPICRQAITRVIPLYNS
UniProt Q99814: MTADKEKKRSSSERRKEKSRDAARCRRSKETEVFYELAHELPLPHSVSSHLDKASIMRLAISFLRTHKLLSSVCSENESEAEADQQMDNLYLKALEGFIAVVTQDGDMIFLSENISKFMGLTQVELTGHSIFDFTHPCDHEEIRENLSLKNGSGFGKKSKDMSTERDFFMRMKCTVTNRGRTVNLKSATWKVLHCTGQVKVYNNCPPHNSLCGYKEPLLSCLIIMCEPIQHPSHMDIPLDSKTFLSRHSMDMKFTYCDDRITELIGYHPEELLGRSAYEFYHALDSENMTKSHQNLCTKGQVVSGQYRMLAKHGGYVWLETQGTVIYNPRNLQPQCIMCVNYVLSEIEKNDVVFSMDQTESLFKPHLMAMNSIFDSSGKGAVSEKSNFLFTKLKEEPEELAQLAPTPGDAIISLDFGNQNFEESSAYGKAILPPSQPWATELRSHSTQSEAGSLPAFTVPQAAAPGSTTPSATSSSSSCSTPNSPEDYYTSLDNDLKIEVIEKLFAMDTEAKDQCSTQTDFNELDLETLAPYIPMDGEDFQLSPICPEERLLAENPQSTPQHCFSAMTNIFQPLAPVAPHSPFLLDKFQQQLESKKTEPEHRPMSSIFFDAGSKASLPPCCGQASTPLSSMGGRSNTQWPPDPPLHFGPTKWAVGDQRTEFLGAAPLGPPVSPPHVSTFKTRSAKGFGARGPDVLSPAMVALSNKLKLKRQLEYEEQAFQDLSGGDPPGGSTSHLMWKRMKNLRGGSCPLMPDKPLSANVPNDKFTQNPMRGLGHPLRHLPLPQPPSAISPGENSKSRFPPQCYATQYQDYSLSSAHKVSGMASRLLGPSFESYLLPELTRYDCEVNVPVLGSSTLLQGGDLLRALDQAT

binding [1]: binds
binding [2]: binds
binding [3]: binds
Substance: hypoxia-inducible factor-2α (HIF-2α) (from UniProt Q99814 1-870)
